Data taken from US9926581B2, “Fagopyritol synthase genes and uses thereof” (Cornell Research Foundation, Inc., priority 2002, dated 2018).

How the values were obtained:
immature soybean embryos = assay: Embryo feeding experiments: cyclitols fed to immature soybean embryos, precocious maturation by slow drying, soluble carbohydrates in axis and cotyledons; type: in vivo, Glycine max (L.) Merrill
soybean explants = assay: Soybean explant feeding 3 days with 50 mM cyclitol in 1% sucrose, slow drying time course, soluble carbohydrates in axis, cotyledon, seed coat and leaf
[1] = 3 days transport of sucrose (1%) and D-chiro-inositol (50 mM), after 2 days slow drying, Rep 1
[2] = 3 days transport of sucrose (1%) and D-chiro-inositol (50 mM), after 2 days slow drying, Rep 2
[3] = 3 days transport of sucrose (1%) and D-chiro-inositol (50 mM), after 4 days slow drying, Rep 1
[4] = 3 days transport of sucrose (1%) and D-chiro-inositol (50 mM), after 4 days slow drying, Rep 2
[5] = 3 days transport of sucrose (1%) and D-chiro-inositol (50 mM), after 14 days slow drying, Rep 1
[6] = 3 days transport of sucrose (1%) and D-chiro-inositol (50 mM), after 14 days slow drying, Rep 2
[7] = 3 days transport of sucrose (1%) and D-chiro-inositol (50 mM), before slow drying, Rep 1
[8] = 3 days transport of sucrose (1%) and D-chiro-inositol (50 mM), before slow drying, Rep 2
[9] = 3 days transport of sucrose (1%) and D-pinitol (50 mM), after 2 days slow drying, Rep 1
[10] = 3 days transport of sucrose (1%) and D-pinitol (50 mM), after 2 days slow drying, Rep 2
[11] = 3 days transport of sucrose (1%) and D-pinitol (50 mM), after 4 days slow drying, Rep 1
[12] = 3 days transport of sucrose (1%) and D-pinitol (50 mM), after 4 days slow drying, Rep 2
[13] = 3 days transport of sucrose (1%) and D-pinitol (50 mM), after 14 days slow drying, Rep 1
[14] = 3 days transport of sucrose (1%) and D-pinitol (50 mM), after 14 days slow drying, Rep 2
[15] = 3 days transport of sucrose (1%) and D-pinitol (50 mM), before slow drying, Rep 1
[16] = 3 days transport of sucrose (1%) and D-pinitol (50 mM), before slow drying, Rep 2
[17] = 3 days transport of sucrose (1%) and myo-inositol (50 mM), after 2 days slow drying, Rep 1
[18] = 3 days transport of sucrose (1%) and myo-inositol (50 mM), after 2 days slow drying, Rep 2
[19] = 3 days transport of sucrose (1%) and myo-inositol (50 mM), after 4 days slow drying, Rep 1

## CO[C@H]1[C@H](O)[C@@H](O[C@H]2O[C@H](CO)[C@H](O)[C@H](O)[C@H]2O)[C@@H](O)[C@H](O)[C@@H]1O [Galactopinitol A, galactopinitol A]
Immature soybean embryos; axis and cotyledon tissues, myo-inositol up to 50 mM, after precocious maturation
  change in concentration after feeding myo-inositol: little change
Immature soybean embryos; axis and cotyledons, concentration series, 14 days precocious maturation
  increase in concentration after feeding D-chiro-inositol: did not increase
Soybean explants; [1]
  Accumulation of soluble carbohydrates in soybean axis: 6.35 μg/axis
  Accumulation of soluble carbohydrates in soybean cotyledon: 12.41 μg/cotyledon
  Accumulation of soluble carbohydrates in soybean seed coat: 0 μg/seed coat
Soybean explants; [2]
  Accumulation of soluble carbohydrates in soybean axis: 6.24 μg/axis
  Accumulation of soluble carbohydrates in soybean cotyledon: 16.08 μg/cotyledon
  Accumulation of soluble carbohydrates in soybean seed coat: 4.13 μg/seed coat
Soybean explants; [3]
  Accumulation of soluble carbohydrates in soybean axis: 13.54 μg/axis
  Accumulation of soluble carbohydrates in soybean cotyledon: 47.20 μg/cotyledon
  Accumulation of soluble carbohydrates in soybean seed coat: 4.72 μg/seed coat
Soybean explants; [4]
  Accumulation of soluble carbohydrates in soybean axis: 12.18 μg/axis
  Accumulation of soluble carbohydrates in soybean cotyledon: 42.69 μg/cotyledon
  Accumulation of soluble carbohydrates in soybean seed coat: 4.29 μg/seed coat
Soybean explants; [5]
  Accumulation of soluble carbohydrates in soybean axis: 15.50 μg/axis
  Accumulation of soluble carbohydrates in soybean cotyledon: 48.41 μg/cotyledon
  Accumulation of soluble carbohydrates in soybean seed coat: 0 μg/seed coat
Soybean explants; [6]
  Accumulation of soluble carbohydrates in soybean axis: 10.18 μg/axis
  Accumulation of soluble carbohydrates in soybean cotyledon: 47.44 μg/cotyledon
  Accumulation of soluble carbohydrates in soybean seed coat: 7.33 μg/seed coat
Soybean explants; [7]
  Accumulation of soluble carbohydrates in soybean axis: 0 μg/axis
  Accumulation of soluble carbohydrates in soybean cotyledon: 15.98 μg/cotyledon
Soybean explants; [8]
  Accumulation of soluble carbohydrates in soybean axis: 0 μg/axis
  Accumulation of soluble carbohydrates in soybean cotyledon: 0 μg/cotyledon
Soybean explants; [9]
  Accumulation of soluble carbohydrates in soybean axis: 7.62 μg/axis
  Accumulation of soluble carbohydrates in soybean cotyledon: 12.29 μg/cotyledon
  Accumulation of soluble carbohydrates in soybean seed coat: 0 μg/seed coat
Soybean explants; [10]
  Accumulation of soluble carbohydrates in soybean axis: 9.41 μg/axis
  Accumulation of soluble carbohydrates in soybean cotyledon: 8.49 μg/cotyledon
  Accumulation of soluble carbohydrates in soybean seed coat: 5.55 μg/seed coat
Soybean explants; [11]
  Accumulation of soluble carbohydrates in soybean axis: 25.04 μg/axis
  Accumulation of soluble carbohydrates in soybean cotyledon: 94.29 μg/cotyledon
  Accumulation of soluble carbohydrates in soybean seed coat: 4.81 μg/seed coat
Soybean explants; [12]
  Accumulation of soluble carbohydrates in soybean axis: 19.32 μg/axis
  Accumulation of soluble carbohydrates in soybean cotyledon: 117.43 μg/cotyledon
  Accumulation of soluble carbohydrates in soybean seed coat: 5.72 μg/seed coat
Soybean explants; [13]
  Accumulation of soluble carbohydrates in soybean axis: 24.72 μg/axis
  Accumulation of soluble carbohydrates in soybean cotyledon: 86.03 μg/cotyledon
  Accumulation of soluble carbohydrates in soybean seed coat: 10.65 μg/seed coat
Soybean explants; [14]
  Accumulation of soluble carbohydrates in soybean axis: 32.49 μg/axis
  Accumulation of soluble carbohydrates in soybean cotyledon: 104.22 μg/cotyledon
  Accumulation of soluble carbohydrates in soybean seed coat: 19.70 μg/seed coat
Soybean explants; [15]
  Accumulation of soluble carbohydrates in soybean axis: 0 μg/axis
  Accumulation of soluble carbohydrates in soybean cotyledon: 9.09 μg/cotyledon
Soybean explants; [16]
  Accumulation of soluble carbohydrates in soybean axis: 0 μg/axis
  Accumulation of soluble carbohydrates in soybean cotyledon: 9.60 μg/cotyledon
Soybean explants; [17]
  Accumulation of soluble carbohydrates in soybean axis: 5.86 μg/axis
  Accumulation of soluble carbohydrates in soybean cotyledons: 12.84 μg/cotyledon
  Accumulation of soluble carbohydrates in soybean seed coats: 0 μg/seed coat
Soybean explants; [18]
  Accumulation of soluble carbohydrates in soybean axis: 8.20 μg/axis
  Accumulation of soluble carbohydrates in soybean cotyledons: 10.98 μg/cotyledon
  Accumulation of soluble carbohydrates in soybean seed coats: 0 μg/seed coat
Soybean explants; [19]
  Accumulation of soluble carbohydrates in soybean axis: 9.93 μg/axis
  Accumulation of soluble carbohydrates in soybean cotyledons: 28.27 μg/cotyledon
